The list shows only some results of the screen, not a fair sample: it is rich in T/C values a quarter to a half above the control, in often repeated tests (any T/C) and in doses without a T/C. Further doses and runs are listed elsewhere. T/C is the treated group as % of the vehicle group. Some doses have a count of surviving animals in place of a T/C: the source holds a T/C of zero for them, seemingly a mark for toxic or unscored doses. Some doses without a T/C left all or most animals alive at the check, yet need not have been tolerated: survival well below the control is almost never listed, so the zero probably covers shortened survival too. Survivors were counted at the toxicity check, usually on the fifth day, unless a day is given; later deaths do not show. Schedules are NCI's codes, read here as Q, the interval in days (D) or hours (H), X, the number of doses. Some entries hold several experiments; the results are listed from low to high. For survival time, this PubChem deposit counts one and a half times the control or more as active, and values a quarter to a half above the control carry no call in these data; other NCI protocols may use other cut-offs.

We go through 21 compounds from PubChem BioAssay AID192 (DTP/NCI, 2004).

This test concerns BDF1 mice, B16 melanoma ip, median survival T/C. Put plainly: NCI In Vivo Anticancer Drug Screen. Data for tumor model B16 Melanoma (intraperitoneal) in B6D2F1 (BDF1) mice. To be noted: T/C endpoint: median survival time, higher T/C = longer survival. The gist of the method:
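Each result divides a survival or tumor-size measurement in the compound-treated group by the same measurement in the vehicle group.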

Setting [1] is: dose: 12.5 mg/kg/injection, schedule: Q01DX009 (ip), vehicle: Klucel (hydroxypropylcellulose) (HPC).
The mark [2] stands for this setting: dose: 200.0 mg/kg/injection, schedule: Q01DX009 (ip), vehicle: Klucel (hydroxypropylcellulose) (HPC).
Where [3] appears, read: dose: 400.0 mg/kg/injection, schedule: Q01DX009 (ip), vehicle: Klucel (hydroxypropylcellulose) (HPC).
Setting [4] is: dose: 200.0 mg/kg/injection, schedule: Q04DX003 (ip), vehicle: Klucel (hydroxypropylcellulose) (HPC).
[5] abbreviates: dose: 400.0 mg/kg/injection, schedule: Q04DX003 (ip), vehicle: Klucel (hydroxypropylcellulose) (HPC).
[6] abbreviates: dose: 25.0 mg/kg/injection, schedule: Q01DX009 (ip), vehicle: saline with Tween-80.
The mark [7] stands for this setting: dose: 100.0 mg/kg/injection, schedule: Q01DX009 (ip), vehicle: saline with Tween-80.

In the case of `COc1cccc2c1C(=O)c1c(O)c3c(c(O)c1C2=O)C[C@@](O)(/C(C)=N/NC(=O)c1cccc([N+](=O)[O-])c1)C[C@@H]3OC1CC(N)C(O)C(C)O1` (stereo not given in full), the T/C runs as follows: (dose: 1.0 mg/kg/injection, schedule: Q01DX001 (ip), vehicle: water) 131 % of control; (dose: 2.0 mg/kg/injection, schedule: Q01DX001 (ip), vehicle: water) 147 % of control; (dose: 4.0 mg/kg/injection, schedule: Q01DX001 (ip), vehicle: water) 139 % of control; (dose: 8.0 mg/kg/injection, schedule: Q01DX001 (ip), vehicle: water) 146 % of control; (dose: 16.0 mg/kg/injection, schedule: Q01DX001 (ip), vehicle: water) 146 % of control. For the same compound, the survivor count reads like this: (dose: 32.0 mg/kg/injection, schedule: Q01DX001 (ip), vehicle: water) 7 of 10 and 9 of 10; (dose: 64.0 mg/kg/injection, schedule: Q01DX001 (ip), vehicle: water) 2 of 10.

With `CCCCc1ccc(-n2c(C)c(COC(=O)NC)c(COC(=O)NC)c2C)cc1`, the T/C (dose: 1.56 mg/kg/injection, schedule: Q01DX009 (ip), vehicle: Klucel (hydroxypropylcellulose) (HPC)) is 125 and 131 % of control; the T/C (dose: 3.12 mg/kg/injection, schedule: Q01DX009 (ip), vehicle: Klucel (hydroxypropylcellulose) (HPC)) was 129 and 139 % of control; the T/C (dose: 6.25 mg/kg/injection, schedule: Q01DX009 (ip), vehicle: Klucel (hydroxypropylcellulose) (HPC)) was 146 and 149 % of control; the T/C under setting [1] is 139 and 141 % of control; the T/C (dose: 25.0 mg/kg/injection, schedule: Q01DX009 (ip), vehicle: Klucel (hydroxypropylcellulose) (HPC)) was 145 % of control. Also, under “dose: 50.0 mg/kg/injection, schedule: Q01DX009 (ip), vehicle: Klucel (hydroxypropylcellulose) (HPC)”, the survivor count was 9 of 10 and 10 of 10.

As to `O=c1oc(/C=C/c2ccccc2)nc2cc(Cl)ccc12`, the T/C under setting [2] was 130 % of control. Also, the survivor count under setting [3] is 5 of 10.

For the compound `CCCCC(C(=O)OCC)C(CCC1CCCCC1)(C(=O)OCC)C(=O)OCC` (stereo not given), the T/C (dose: 12.5 mg/kg/injection, schedule: Q04DX003 (ip), vehicle: Klucel (hydroxypropylcellulose) (HPC)) was 136 % of control. In addition, the survivor count (dose: 25.0 mg/kg/injection, schedule: Q04DX003 (ip), vehicle: Klucel (hydroxypropylcellulose) (HPC)) is 10 of 10; the survivor count (dose: 100.0 mg/kg/injection, schedule: Q04DX003 (ip), vehicle: Klucel (hydroxypropylcellulose) (HPC)) is recorded as 10 of 10; the survivor count under setting [4] was 10 of 10; the survivor count under setting [5] was 10 of 10.

With `Cc1cc(C)c(NC(=O)N(CCCl)N=O)cc1C`, the survivor count was 6 of 6 (dose: 90.0 mg/kg/injection, schedule: Q01DX009 (ip), vehicle: saline) and 6 of 6 (dose: 180.0 mg/kg/injection, schedule: Q01DX009 (ip), vehicle: saline).

`ClC[P+](c1ccccc1)(c1ccccc1)c1ccccc1`: where the note is “dose: 20.0 mg/kg/injection, schedule: Q01DX009 (ip), vehicle: saline”, the survivor count is 0 of 10.

On to `C1CN2CCC1CC2`, for which the survivor count was 0 of 10 under setting [6]; 10 of 10 (dose: 50.0 mg/kg/injection, schedule: Q01DX009 (ip), vehicle: saline with Tween-80); 3 of 10 under setting [7]; 0 of 10 (dose: 200.0 mg/kg/injection, schedule: Q01DX009 (ip), vehicle: saline with Tween-80).

With `CCCCCCCCCCCCCCCCCCNC(=O)Nc1ccc(C(C)C)cc1`, the survivor count (dose: 50.0 mg/kg/injection, schedule: Q04DX003 (ip), vehicle: Klucel (hydroxypropylcellulose) (HPC)) is 10 of 10; the survivor count under setting [4] is on record as 10 of 10; the survivor count under setting [5] is listed as 10 of 10.

As to `CCNCCNc1ccc(NCCNCC)c2c1C(=O)c1ccccc1C2=O`, under “dose: 4.0 mg/kg/injection, schedule: Q01DX009 (ip), vehicle: acid diluted with saline”, the T/C was 127 % of control. The survivor count is listed as 10 of 10 (dose: 32.0 mg/kg/injection, schedule: Q01DX009 (ip), vehicle: acid diluted with saline) and 0 of 10 (dose: 64.0 mg/kg/injection, schedule: Q01DX009 (ip), vehicle: acid diluted with saline).

For the compound `O=C(O)CP(=O)(O)O`, the survivor count (dose: 128.0 mg/kg/injection, schedule: Q01DX009 (ip), vehicle: saline) is recorded as 9 of 10.

On to `CCO/C=C1\SC(=S)N(c2ccccc2OC)C1=O`, for which the survivor count is given as 7 of 10 under setting [2] and 7 of 10 under setting [3].

Turning to `N=C(N)Sc1ccccn1`, the survivor count is 10 of 10 (dose: 200.0 mg/kg/injection, schedule: Q01DX009 (ip), vehicle: saline); 10 of 10 (dose: 200.0 mg/kg/injection, schedule: Q01DX009 (ip), vehicle: suspension in saline); 9 of 10 (dose: 400.0 mg/kg/injection, schedule: Q01DX009 (ip), vehicle: saline); 1 of 10 (dose: 400.0 mg/kg/injection, schedule: Q01DX009 (ip), vehicle: suspension in saline).

With `CCCCCC(=O)c1ccc(OCCCN2CCN(C(=O)OCC)CC2)cc1`, for the setting “dose: 400.0 mg/kg/injection, schedule: Q01DX009 (ip), vehicle: saline with Tween-80”, the survivor count is 8 of 10.

On to `CC1C(=O)OCC2=CCN3CCC(OC(=O)C(C)C1(C)O)C23` (stereo not given), for which the T/C (dose: 100.0 mg/kg/injection, schedule: Q01DX009 (ip), vehicle: saline) was 130 % of control.

Consider `Cc1ccc(S(=O)(=O)OCCN(CCOS(=O)(=O)c2ccc(C)cc2)c2ccc(F)cc2)cc1`, for which the T/C (dose: 12.5 mg/kg/injection, schedule: Q01DX009 (ip), vehicle: saline) is 130 % of control and the T/C (dose: 25.0 mg/kg/injection, schedule: Q01DX009 (ip), vehicle: saline) was 134 % of control. Further, for the setting “dose: 25.0 mg/kg/injection, schedule: Q01DX009 (ip), vehicle: saline + alcohol”, the survivor count is 6 of 10.

Regarding `Cc1cc(C(C)(CC(C)C)c2ccc(O)c(C)c2)ccc1O`, the survivor count under setting [7] is recorded as 9 of 10.

Turning to `COc1cc2c(cc1OC)C1CC(=O)C(CC(C)C)CN1CC2` (stereo not given), the survivor count was 9 of 10 under setting [1], 9 of 10 under setting [2] and 3 of 10 under setting [3].

For `CNC(=O)OCc1c(COC(=O)NC)c(-c2ccccc2)n(C)c1-c1ccccc1`, the survivor count is, setting by setting: (dose: 50.0 mg/kg/injection, schedule: Q01DX009 (ip), vehicle: distilled water + Tween-80) 10 of 10; (dose: 100.0 mg/kg/injection, schedule: Q01DX009 (ip), vehicle: distilled water + Tween-80) 7 of 10.

On to `NC(=O)/C=C/C(=O)c1c(Cl)cccc1Cl`, for which the survivor count reads like this: (dose: 6.25 mg/kg/injection, schedule: Q01DX009 (ip), vehicle: saline with Tween-80) 10 of 10; (dose: 12.5 mg/kg/injection, schedule: Q01DX009 (ip), vehicle: saline with Tween-80) 9 of 10; under setting [6], 0 of 10.

Consider `CCCCC(CC)COP(OCC(CC)CCCC)OCC(CC)CCCC` (stereo not given), for which the survivor count (dose: 400.0 mg/kg/injection, schedule: Q04DX003 (ip), vehicle: saline with Tween-80) was 10 of 10.

In the case of `COC(=O)C1Oc2ccc(Cl)cc2Cc2cc(Cl)ccc2O1`, the survivor count is 9 of 10 (dose: 20.0 mg/kg/injection, schedule: Q01DX009 (ip), vehicle: Klucel (hydroxypropylcellulose) (HPC)); 9 of 10 (dose: 40.0 mg/kg/injection, schedule: Q01DX009 (ip), vehicle: Klucel (hydroxypropylcellulose) (HPC)); 8 of 10 (dose: 75.0 mg/kg/injection, schedule: Q01DX009 (ip), vehicle: Klucel (hydroxypropylcellulose) (HPC)); 6 of 10 (dose: 150.0 mg/kg/injection, schedule: Q01DX009 (ip), vehicle: Klucel (hydroxypropylcellulose) (HPC)); 5 of 10 (dose: 300.0 mg/kg/injection, schedule: Q01DX009 (ip), vehicle: Klucel (hydroxypropylcellulose) (HPC)).
